The experiment deals with T1, EGFP-SLF1 (wild type), U2OS (UniProt Q9BQI6).
T1 sequence: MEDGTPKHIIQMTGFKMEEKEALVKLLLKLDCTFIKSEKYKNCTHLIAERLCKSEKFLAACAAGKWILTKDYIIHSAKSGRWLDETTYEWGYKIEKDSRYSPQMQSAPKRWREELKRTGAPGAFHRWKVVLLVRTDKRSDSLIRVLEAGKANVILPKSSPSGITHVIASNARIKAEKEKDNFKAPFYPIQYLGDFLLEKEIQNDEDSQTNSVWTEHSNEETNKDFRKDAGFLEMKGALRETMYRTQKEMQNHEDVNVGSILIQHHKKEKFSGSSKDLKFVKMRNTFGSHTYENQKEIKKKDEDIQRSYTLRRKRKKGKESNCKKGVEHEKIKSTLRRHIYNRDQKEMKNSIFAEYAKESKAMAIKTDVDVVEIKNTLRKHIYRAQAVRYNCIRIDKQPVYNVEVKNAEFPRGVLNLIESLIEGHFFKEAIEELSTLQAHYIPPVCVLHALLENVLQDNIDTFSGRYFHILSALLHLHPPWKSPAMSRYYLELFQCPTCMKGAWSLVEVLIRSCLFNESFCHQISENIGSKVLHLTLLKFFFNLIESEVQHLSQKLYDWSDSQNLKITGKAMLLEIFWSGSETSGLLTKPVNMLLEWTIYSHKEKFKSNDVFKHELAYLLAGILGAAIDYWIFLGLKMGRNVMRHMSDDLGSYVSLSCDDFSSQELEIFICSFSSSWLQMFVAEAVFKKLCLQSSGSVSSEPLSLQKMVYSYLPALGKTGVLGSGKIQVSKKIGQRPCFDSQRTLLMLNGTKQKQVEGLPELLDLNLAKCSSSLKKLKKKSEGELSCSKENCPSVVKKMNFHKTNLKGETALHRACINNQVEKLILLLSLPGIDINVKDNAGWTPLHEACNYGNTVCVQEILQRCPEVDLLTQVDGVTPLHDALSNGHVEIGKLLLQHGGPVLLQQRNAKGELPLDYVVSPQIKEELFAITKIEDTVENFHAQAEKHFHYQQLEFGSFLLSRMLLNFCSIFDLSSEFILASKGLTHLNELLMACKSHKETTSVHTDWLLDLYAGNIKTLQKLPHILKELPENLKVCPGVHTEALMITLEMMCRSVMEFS
Put plainly: proximity ligation; U2OS transfected with EGFP-SLF1 variants, IR-irradiated as indicated 2 h before fixation; PLA with RAD18 and GFP antibodies; nuclear PLA intensity normalised to SLF1-WT in S cells.

Sequences of proteins named here, by UniProt entry; tags and fusion partners are left off.
UniProt Q9NS91: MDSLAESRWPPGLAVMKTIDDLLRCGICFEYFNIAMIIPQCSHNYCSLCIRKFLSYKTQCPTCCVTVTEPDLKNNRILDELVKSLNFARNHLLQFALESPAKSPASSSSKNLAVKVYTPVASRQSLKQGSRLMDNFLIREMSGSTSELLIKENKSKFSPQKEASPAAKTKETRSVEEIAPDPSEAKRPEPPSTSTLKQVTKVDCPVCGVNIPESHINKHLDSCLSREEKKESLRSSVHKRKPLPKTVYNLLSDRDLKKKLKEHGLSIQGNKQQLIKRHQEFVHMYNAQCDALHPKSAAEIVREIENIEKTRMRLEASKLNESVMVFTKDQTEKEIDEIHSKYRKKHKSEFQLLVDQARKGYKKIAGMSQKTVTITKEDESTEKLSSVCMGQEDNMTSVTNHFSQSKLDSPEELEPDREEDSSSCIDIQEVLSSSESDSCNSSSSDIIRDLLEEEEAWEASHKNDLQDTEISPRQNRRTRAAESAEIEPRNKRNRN

Results are given in words; binding and its absence hold for the method and conditions named. Binding seen in cells or lysates may run through a third protein. Some entries that bind do so weakly or less than the wild type. Sequences can lack the tags named with a protein.

For “RAD18, endogenous (U2OS) (from UniProt Q9NS91 1-495)”, the binding result is recorded as “binds”.
